PubChem BioAssay AID1159578 – Peter MacCallum Cancer Centre, 2015
Purpose: 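Knock-downs that alter how fast lymphatic endothelial cells migrate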 (primary screen). System: human lymphatic endothelial cells. Knock-down reagent: siRNA pool against human genes, 40 nM. Duration: 48 h after transfection. Detection: 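Cells stained with dye and imaged after a scratch; covered wound area and nuclei counted, duplicates averaged, migration set against mock wells and turned into a robust z-score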. Direction: migration robust z-score: higher = faster migration into the scratch; migration relative to mock: higher = more scratch area covered than mock; nuclei per well: higher = more cells in the well. Rule for the call: 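Migration changed when robust z exceeds 2 or falls below -2 and mean nuclei number is at least 3300; otherwise not called changed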. Meaning of the calls: active = migration changed; inactive = no migration change, or too few cells.
This is one part, drawn at random, of about 18,000 deposited reagents. About 1,030 of them (5.7%) count as active. 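Inactive calls also include pools with fewer than 3300 nuclei, whose migration was not assessed.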 Raw values are not corrected between plates. Entries without a mark were called inactive.

Target gene	migration robust z-score	migration class with cell-count check	migration relative to mock	nuclei per well, duplicate mean
NPM1 (nucleophosmin 1)	0.18	migration z between -2 and 2; enough cells	0.84	5588
GPC1 (glypican 1)	0.56	migration z between -2 and 2; enough cells	1.03	5683
CYB5B (cytochrome b5 type B)	-0.6	migration z between -2 and 2; enough cells	0.73	6385
ZC3H11A (zinc finger CCCH-type containing 11A)	-0.13	migration z between -2 and 2; enough cells	0.86	5906
ADGRL3 (adhesion G protein-coupled receptor L3)	0.21	migration z between -2 and 2; enough cells	0.84	7156
SLC7A10	-0.75	migration z between -2 and 2; enough cells	0.66	5604
CCNJL (cyclin J like)	0.54	migration z between -2 and 2; enough cells	1.02	6429
LBR (lamin B receptor)	1.92	migration z between -2 and 2; enough cells	1.17	6168
FES (FES proto-oncogene, tyrosine kinase)	-0.76	migration z between -2 and 2; enough cells	0.66	6458
RNMT (RNA guanine-7 methyltransferase)	1.79	migration z between -2 and 2; enough cells	1.15	5269
CRTC1 (CREB regulated transcription coactivator 1)	-0.31	migration z between -2 and 2; enough cells	0.81	5444
KLF16 (KLF transcription factor 16)	-0.65	under 3300 nuclei; migration not judged	0.68	3274
TDRD9 (tudor domain containing 9)	0.3	migration z between -2 and 2; enough cells	0.97	5442
DDB2 (damage specific DNA binding protein 2)	1.03	migration z between -2 and 2; enough cells	1	6269
CCT4 (chaperonin containing TCP1 subunit 4)	-3.55	under 3300 nuclei; migration not judged	0.12	3249
AVPI1 (arginine vasopressin induced 1)	-0.41	migration z between -2 and 2; enough cells	0.78	5782
BRIX1 (biogenesis of ribosomes BRX1)	0.26	migration z between -2 and 2; enough cells	0.95	5938
NACC1 (nucleus accumbens associated 1)	0.57	migration z between -2 and 2; enough cells	1.04	5690
PTCRA (pre T cell antigen receptor alpha)	0.74	migration z between -2 and 2; enough cells	1.08	6214
OR5M1 (olfactory receptor family 5 subfamily M member 1)	-0.26	migration z between -2 and 2; enough cells	0.82	6450
DDTL (D-dopachrome tautomerase like)	-1	migration z between -2 and 2; enough cells	0.62	5884
SDHC (succinate dehydrogenase complex subunit C)	-0.57	migration z between -2 and 2; enough cells	0.7	4248
DCPH1 (damage control phosphatase 1)	-0.22	migration z between -2 and 2; enough cells	0.83	5082
CASQ1 (calsequestrin 1)	1.36	migration z between -2 and 2; enough cells	1.23	5990
SIN3B (SIN3 transcription regulator family member B)	0.67	migration z between -2 and 2; enough cells	1.05	4806
PLA2G5 (phospholipase A2 group V)	0.52	migration z between -2 and 2; enough cells	0.9	3835
NANOS1 (nanos C2HC-type zinc finger 1)	-0.9	migration z between -2 and 2; enough cells	0.66	4238
HCLS1 (hematopoietic cell-specific Lyn substrate 1)	-0.58	migration z between -2 and 2; enough cells	0.74	5624
SERPINA11 (serpin family A member 11)	-0.2	migration z between -2 and 2; enough cells	0.83	3730
YPEL1 (yippee like 1)	-0.26	migration z between -2 and 2; enough cells	0.82	5935
ZNF496 (zinc finger protein 496)	-0.84	migration z between -2 and 2; enough cells	0.67	4950
NACA (nascent polypeptide associated complex subunit alpha)	0.16	migration z between -2 and 2; enough cells	0.92	5491
HECTD4 (HECT domain E3 ubiquitin protein ligase 4)	0.36	migration z between -2 and 2; enough cells	0.87	4690
MS4A10 (membrane spanning 4-domains A10)	-0.24	migration z between -2 and 2; enough cells	0.82	6476
CSNK1G1 (casein kinase 1 gamma 1)	0.86	migration z between -2 and 2; enough cells	0.97	5798
CHCHD10 (coiled-coil-helix-coiled-coil-helix domain containing 10)	0.26	migration z between -2 and 2; enough cells	0.95	5144
MTRES1 (mitochondrial transcription rescue factor 1)	-0.86	migration z between -2 and 2; enough cells	0.66	5561
NARS1 (asparaginyl-tRNA synthetase 1)	0.42	migration z between -2 and 2; enough cells	0.88	5415
SNAI3 (snail family transcriptional repressor 3)	-0.76	migration z between -2 and 2; enough cells	0.68	5115

Sorted by “migration robust z-score” (highest first): some entries from above.
Target gene	migration robust z-score	migration class with cell-count check	migration relative to mock	nuclei per well, duplicate mean
OR5M1 (olfactory receptor family 5 subfamily M member 1)	-0.26	migration z between -2 and 2; enough cells	0.82	6450
DDTL (D-dopachrome tautomerase like)	-1	migration z between -2 and 2; enough cells	0.62	5884
